PubChem BioAssay AID504764 | Drosophila RNAi Screening Center, 2011
The deposit covers about 22,000 reagents; this is an unselected part of those that have a named target and a result. Of all reagents, 403 (1.9%) were called active. 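Unnormalised raw counts per well; ratio z-scores behind the hit calls and whether each hit raises or lowers signal are not deposited.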 Not given: the amount of reagent.

Screen: 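Genome-wide screen for regulators of Notch-driven gene expression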 (primary screen)
System: Drosophila Kc167 cells
Knock-down reagent: long dsRNA against Drosophila genes
Timing: about 5 days (4 days dsRNA, then 24 h after transfection)
Conditions: transfection of constitutively active membrane-tethered Notch lacking the extracellular domain, read 24 h later
Measurement: 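Light from a Notch-responsive E(spl)m3 luciferase reporter under active Notch, with control-promoter and no-Notch reporter wells to normalise; raw counts from paired wells a and b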
Scale: induced reporter light, run 1, well a and induced reporter light, run 1, well b: higher = more light from the Notch target reporter with active Notch; control promoter light, run 1, well a and control promoter light, run 1, well b: higher = more light from the viral control promoter (cell number, transfection, viability); uninduced reporter light, run 1, well a: higher = more light from the Notch target reporter without active Notch
Rule for the call: 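Hit if the duplicate-averaged log2 ratio of induced to control-promoter light gives a plate-wise z beyond ±2, or induced to uninduced beyond ±1.8; weak-control or discordant-duplicate wells dropped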
Meaning of the calls: active = modifier hit (raised or lowered Notch signal); inactive = not a hit

{"Target gene": "CG13679", "amplicon": "DRSC10037", "induced reporter light, run 1, well a": 3.06e5, "induced reporter light, run 1, well b": 2.04e5, "control promoter light, run 1, well a": 2.52e5, "control promoter light, run 1, well b": 2.11e5, "uninduced reporter light, run 1, well a": 11630, "call": "inactive"}
{"Target gene": "CG13654", "amplicon": "DRSC14654", "induced reporter light, run 1, well a": 1.64e5, "induced reporter light, run 1, well b": 1.51e5, "control promoter light, run 1, well a": 2.08e5, "control promoter light, run 1, well b": 1.87e5, "uninduced reporter light, run 1, well a": 13935, "call": "inactive"}
{"Target gene": "CG5273", "amplicon": "DRSC18612", "induced reporter light, run 1, well a": 1.09e5, "induced reporter light, run 1, well b": 1.25e5, "control promoter light, run 1, well a": 1.90e5, "control promoter light, run 1, well b": 2.56e5, "uninduced reporter light, run 1, well a": 8650, "call": "inactive"}
{"Target gene": "CG15876", "amplicon": "DRSC08484", "induced reporter light, run 1, well a": 1.73e5, "induced reporter light, run 1, well b": 1.81e5, "control promoter light, run 1, well a": 2.54e5, "control promoter light, run 1, well b": 2.16e5, "uninduced reporter light, run 1, well a": 9725, "call": "inactive"}
{"Target gene": "CG32462", "amplicon": "DRSC11851", "induced reporter light, run 1, well a": 1.06e5, "induced reporter light, run 1, well b": 1.05e5, "control promoter light, run 1, well a": 69370, "control promoter light, run 1, well b": 69940, "uninduced reporter light, run 1, well a": 8728, "call": "inactive"}
{"Target gene": "chico", "amplicon": "DRSC03531", "induced reporter light, run 1, well a": 1.27e5, "induced reporter light, run 1, well b": 1.47e5, "control promoter light, run 1, well a": 1.47e5, "control promoter light, run 1, well b": 1.63e5, "uninduced reporter light, run 1, well a": 13235, "call": "inactive"}
{"Target gene": "uzip (unzipped)", "amplicon": "DRSC04722", "induced reporter light, run 1, well a": 95520, "induced reporter light, run 1, well b": 95295, "control promoter light, run 1, well a": 85590, "control promoter light, run 1, well b": 85590, "uninduced reporter light, run 1, well a": 6610, "call": "inactive"}
{"Target gene": "Alg14 (ALG14, UDP-N-acetylglucosaminyltransferase subunit)", "amplicon": "DRSC19983", "induced reporter light, run 1, well a": 71925, "induced reporter light, run 1, well b": 77010, "control promoter light, run 1, well a": 1.56e5, "control promoter light, run 1, well b": 97600, "uninduced reporter light, run 1, well a": 12040, "call": "inactive"}
{"Target gene": "CG13436", "amplicon": "DRSC06396", "induced reporter light, run 1, well a": 1.20e5, "induced reporter light, run 1, well b": 1.37e5, "control promoter light, run 1, well a": 2.31e5, "control promoter light, run 1, well b": 2.02e5, "uninduced reporter light, run 1, well a": 8688, "call": "inactive"}
{"Target gene": "w (white)", "amplicon": "DRSC17233", "induced reporter light, run 1, well a": 70740, "induced reporter light, run 1, well b": 73675, "control promoter light, run 1, well a": 1.29e5, "control promoter light, run 1, well b": 99585, "uninduced reporter light, run 1, well a": 7100, "call": "inactive"}
{"Target gene": "w (white)", "amplicon": "DRSC18850", "induced reporter light, run 1, well a": 1.22e5, "induced reporter light, run 1, well b": 1.28e5, "control promoter light, run 1, well a": 2.30e5, "control promoter light, run 1, well b": 1.77e5, "uninduced reporter light, run 1, well a": 8720, "call": "inactive"}
{"Target gene": "Muc91C (Mucin 91C)", "amplicon": "DRSC16297", "induced reporter light, run 1, well a": 1.97e5, "induced reporter light, run 1, well b": 1.68e5, "control promoter light, run 1, well a": 1.81e5, "control promoter light, run 1, well b": 1.99e5, "uninduced reporter light, run 1, well a": 12155, "call": "inactive"}
{"Target gene": "RNaseX25 (Ribonuclease X25)", "amplicon": "DRSC11259", "induced reporter light, run 1, well a": 98880, "induced reporter light, run 1, well b": 1.20e5, "control promoter light, run 1, well a": 75495, "control promoter light, run 1, well b": 34445, "uninduced reporter light, run 1, well a": 9980, "call": "inactive"}
{"Target gene": "nudE", "amplicon": "DRSC09000", "induced reporter light, run 1, well a": 1.39e5, "induced reporter light, run 1, well b": 1.37e5, "control promoter light, run 1, well a": 1.72e5, "control promoter light, run 1, well b": 1.58e5, "uninduced reporter light, run 1, well a": 9235, "call": "inactive"}
{"Target gene": "nudE", "amplicon": "DRSC10962", "induced reporter light, run 1, well a": 1.66e5, "induced reporter light, run 1, well b": 1.06e5, "control promoter light, run 1, well a": 1.87e5, "control promoter light, run 1, well b": 1.94e5, "uninduced reporter light, run 1, well a": 8992, "call": "inactive"}
{"Target gene": "CG34384", "amplicon": "DRSC12644", "induced reporter light, run 1, well a": 1.38e5, "induced reporter light, run 1, well b": 1.41e5, "control promoter light, run 1, well a": 1.56e5, "control promoter light, run 1, well b": 1.46e5, "uninduced reporter light, run 1, well a": 10690, "call": "inactive"}
{"Target gene": "CG34384", "amplicon": "DRSC14855", "induced reporter light, run 1, well a": 1.31e5, "induced reporter light, run 1, well b": 1.13e5, "control promoter light, run 1, well a": 1.04e5, "control promoter light, run 1, well b": 89560, "uninduced reporter light, run 1, well a": 8855, "call": "inactive"}
{"Target gene": "CG34384", "amplicon": "DRSC15444", "induced reporter light, run 1, well a": 60640, "induced reporter light, run 1, well b": 77690, "control promoter light, run 1, well a": 85040, "control promoter light, run 1, well b": 51310, "uninduced reporter light, run 1, well a": 5350, "call": "inactive"}
{"Target gene": "CG34384", "amplicon": "DRSC16575", "induced reporter light, run 1, well a": 1.04e5, "induced reporter light, run 1, well b": 1.21e5, "control promoter light, run 1, well a": 73210, "control promoter light, run 1, well b": 81110, "uninduced reporter light, run 1, well a": 4935, "call": "inactive"}
{"Target gene": "Osi4 (Osiris 4)", "amplicon": "DRSC12134", "induced reporter light, run 1, well a": 57270, "induced reporter light, run 1, well b": 66855, "control promoter light, run 1, well a": 76160, "control promoter light, run 1, well b": 57025, "uninduced reporter light, run 1, well a": 4570, "call": "inactive"}
{"Target gene": "CG11396", "amplicon": "DRSC11654", "induced reporter light, run 1, well a": 1.02e5, "induced reporter light, run 1, well b": 96175, "control promoter light, run 1, well a": 89040, "control promoter light, run 1, well b": 1.01e5, "uninduced reporter light, run 1, well a": 8635, "call": "inactive"}
{"Target gene": "CG2614", "amplicon": "DRSC02711", "induced reporter light, run 1, well a": 2.11e5, "induced reporter light, run 1, well b": 1.74e5, "control promoter light, run 1, well a": 3.15e5, "control promoter light, run 1, well b": 3.13e5, "uninduced reporter light, run 1, well a": 13215, "call": "inactive"}
{"Target gene": "CG13423", "amplicon": "DRSC06386", "induced reporter light, run 1, well a": 1.49e5, "induced reporter light, run 1, well b": 1.38e5, "control promoter light, run 1, well a": 1.28e5, "control promoter light, run 1, well b": 1.25e5, "uninduced reporter light, run 1, well a": 7610, "call": "inactive"}
{"Target gene": "CG8188", "amplicon": "DRSC20090", "induced reporter light, run 1, well a": 68055, "induced reporter light, run 1, well b": 75730, "control promoter light, run 1, well a": 72240, "control promoter light, run 1, well b": 66935, "uninduced reporter light, run 1, well a": 9745, "call": "inactive"}

3 entries from above in another layout.
{"Target gene":"CG15876","amplicon":"DRSC08484","induced reporter light, run 1, well a":1.73e5,"induced reporter light, run 1, well b":1.81e5,"control promoter light, run 1, well a":2.54e5,"control promoter light, run 1, well b":2.16e5,"uninduced reporter light, run 1, well a":9725,"call":"inactive"}
{"Target gene":"CG32462","amplicon":"DRSC11851","induced reporter light, run 1, well a":1.06e5,"induced reporter light, run 1, well b":1.05e5,"control promoter light, run 1, well a":69370,"control promoter light, run 1, well b":69940,"uninduced reporter light, run 1, well a":8728,"call":"inactive"}
{"Target gene":"chico","amplicon":"DRSC03531","induced reporter light, run 1, well a":1.27e5,"induced reporter light, run 1, well b":1.47e5,"control promoter light, run 1, well a":1.47e5,"control promoter light, run 1, well b":1.63e5,"uninduced reporter light, run 1, well a":13235,"call":"inactive"}
